From the supplement of paper PMC12067093, “Discovery and optimisation of a covalent ligand for TRIM25 and its application to targeted protein ubiquitination” (Chemical Science, 2025)
Some of the results follow.

Chains of the proteins cited; added tags and fusions are not shown. Lines headed by an entry give the natural chain unless they say otherwise; changes in a name come on top.
UniProt Q8NC96: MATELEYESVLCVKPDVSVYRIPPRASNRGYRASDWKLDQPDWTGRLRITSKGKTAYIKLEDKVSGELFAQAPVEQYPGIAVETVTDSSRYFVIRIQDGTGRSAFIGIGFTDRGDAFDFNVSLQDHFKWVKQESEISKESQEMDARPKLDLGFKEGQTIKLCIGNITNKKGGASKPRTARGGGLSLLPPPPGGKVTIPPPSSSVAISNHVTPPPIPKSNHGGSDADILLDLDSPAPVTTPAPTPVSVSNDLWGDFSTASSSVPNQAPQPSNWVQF
UniProt Q7L592: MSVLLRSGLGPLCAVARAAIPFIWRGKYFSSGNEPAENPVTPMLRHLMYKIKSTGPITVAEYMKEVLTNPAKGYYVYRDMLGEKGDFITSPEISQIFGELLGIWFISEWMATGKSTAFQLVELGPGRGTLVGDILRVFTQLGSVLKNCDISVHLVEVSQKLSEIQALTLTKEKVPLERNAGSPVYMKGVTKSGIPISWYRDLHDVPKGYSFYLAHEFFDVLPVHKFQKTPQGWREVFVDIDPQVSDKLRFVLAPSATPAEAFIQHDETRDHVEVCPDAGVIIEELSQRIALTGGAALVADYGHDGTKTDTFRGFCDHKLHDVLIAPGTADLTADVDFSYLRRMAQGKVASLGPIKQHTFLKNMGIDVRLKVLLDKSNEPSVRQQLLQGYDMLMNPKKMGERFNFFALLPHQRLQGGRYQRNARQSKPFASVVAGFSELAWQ
UniProt P28331, whole entry, looked up: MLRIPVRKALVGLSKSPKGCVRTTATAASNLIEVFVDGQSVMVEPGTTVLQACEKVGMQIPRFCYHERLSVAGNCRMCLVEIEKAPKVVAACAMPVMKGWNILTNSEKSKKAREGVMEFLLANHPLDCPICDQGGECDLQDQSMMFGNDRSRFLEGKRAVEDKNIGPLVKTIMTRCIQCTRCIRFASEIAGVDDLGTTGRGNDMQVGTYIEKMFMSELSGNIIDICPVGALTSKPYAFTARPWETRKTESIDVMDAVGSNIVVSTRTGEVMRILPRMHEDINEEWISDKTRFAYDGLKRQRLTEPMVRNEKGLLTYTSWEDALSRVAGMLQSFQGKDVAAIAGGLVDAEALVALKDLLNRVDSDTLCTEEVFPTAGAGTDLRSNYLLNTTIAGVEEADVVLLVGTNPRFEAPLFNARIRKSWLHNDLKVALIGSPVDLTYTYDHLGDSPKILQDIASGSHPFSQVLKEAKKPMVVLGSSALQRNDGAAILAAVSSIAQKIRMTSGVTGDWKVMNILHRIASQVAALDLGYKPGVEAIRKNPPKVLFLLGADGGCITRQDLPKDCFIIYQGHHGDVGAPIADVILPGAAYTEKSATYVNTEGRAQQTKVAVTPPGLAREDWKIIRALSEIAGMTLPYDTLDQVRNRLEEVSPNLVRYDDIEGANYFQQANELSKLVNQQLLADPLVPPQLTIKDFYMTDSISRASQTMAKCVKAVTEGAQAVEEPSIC
UniProt Q92692, whole entry, looked up: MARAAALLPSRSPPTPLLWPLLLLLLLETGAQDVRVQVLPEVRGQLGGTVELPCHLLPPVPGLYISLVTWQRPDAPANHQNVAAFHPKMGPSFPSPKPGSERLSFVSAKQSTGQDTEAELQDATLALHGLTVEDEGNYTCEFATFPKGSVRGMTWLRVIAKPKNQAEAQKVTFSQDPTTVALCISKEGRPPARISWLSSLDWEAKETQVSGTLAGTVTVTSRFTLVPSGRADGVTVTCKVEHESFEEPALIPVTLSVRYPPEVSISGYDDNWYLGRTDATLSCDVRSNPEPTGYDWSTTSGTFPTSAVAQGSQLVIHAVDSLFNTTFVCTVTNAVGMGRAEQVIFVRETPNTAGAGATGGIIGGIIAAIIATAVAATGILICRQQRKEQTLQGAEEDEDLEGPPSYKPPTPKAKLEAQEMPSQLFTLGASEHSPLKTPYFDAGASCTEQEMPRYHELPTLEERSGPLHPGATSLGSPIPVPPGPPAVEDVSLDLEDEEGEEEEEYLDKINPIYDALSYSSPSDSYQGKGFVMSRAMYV
UniProt O60524: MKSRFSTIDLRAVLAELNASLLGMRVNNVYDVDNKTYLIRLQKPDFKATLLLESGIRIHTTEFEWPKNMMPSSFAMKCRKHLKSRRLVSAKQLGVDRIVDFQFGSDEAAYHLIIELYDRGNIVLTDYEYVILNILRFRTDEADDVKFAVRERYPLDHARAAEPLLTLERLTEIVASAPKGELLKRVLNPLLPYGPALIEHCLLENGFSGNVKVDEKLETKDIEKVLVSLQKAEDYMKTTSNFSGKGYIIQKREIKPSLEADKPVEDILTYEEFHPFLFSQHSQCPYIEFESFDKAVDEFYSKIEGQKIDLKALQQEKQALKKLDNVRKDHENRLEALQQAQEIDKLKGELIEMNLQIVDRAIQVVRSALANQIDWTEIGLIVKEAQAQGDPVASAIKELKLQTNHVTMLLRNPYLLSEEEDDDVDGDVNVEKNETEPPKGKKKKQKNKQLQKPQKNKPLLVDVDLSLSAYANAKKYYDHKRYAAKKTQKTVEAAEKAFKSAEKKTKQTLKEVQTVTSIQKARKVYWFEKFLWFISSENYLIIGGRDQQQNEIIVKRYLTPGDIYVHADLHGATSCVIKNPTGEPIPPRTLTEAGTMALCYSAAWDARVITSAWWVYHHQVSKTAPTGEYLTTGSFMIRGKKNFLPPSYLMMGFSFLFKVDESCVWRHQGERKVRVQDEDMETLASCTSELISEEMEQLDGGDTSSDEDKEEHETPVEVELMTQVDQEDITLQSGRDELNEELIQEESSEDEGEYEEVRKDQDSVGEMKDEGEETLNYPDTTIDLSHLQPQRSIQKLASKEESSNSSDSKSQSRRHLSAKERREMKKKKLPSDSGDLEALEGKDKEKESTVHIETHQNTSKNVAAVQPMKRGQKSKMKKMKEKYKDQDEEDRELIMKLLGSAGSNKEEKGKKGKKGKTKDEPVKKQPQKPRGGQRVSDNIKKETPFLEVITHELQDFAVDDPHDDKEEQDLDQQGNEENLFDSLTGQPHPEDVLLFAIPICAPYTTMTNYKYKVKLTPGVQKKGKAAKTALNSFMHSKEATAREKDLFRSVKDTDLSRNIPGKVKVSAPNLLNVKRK
UniProt Q13469: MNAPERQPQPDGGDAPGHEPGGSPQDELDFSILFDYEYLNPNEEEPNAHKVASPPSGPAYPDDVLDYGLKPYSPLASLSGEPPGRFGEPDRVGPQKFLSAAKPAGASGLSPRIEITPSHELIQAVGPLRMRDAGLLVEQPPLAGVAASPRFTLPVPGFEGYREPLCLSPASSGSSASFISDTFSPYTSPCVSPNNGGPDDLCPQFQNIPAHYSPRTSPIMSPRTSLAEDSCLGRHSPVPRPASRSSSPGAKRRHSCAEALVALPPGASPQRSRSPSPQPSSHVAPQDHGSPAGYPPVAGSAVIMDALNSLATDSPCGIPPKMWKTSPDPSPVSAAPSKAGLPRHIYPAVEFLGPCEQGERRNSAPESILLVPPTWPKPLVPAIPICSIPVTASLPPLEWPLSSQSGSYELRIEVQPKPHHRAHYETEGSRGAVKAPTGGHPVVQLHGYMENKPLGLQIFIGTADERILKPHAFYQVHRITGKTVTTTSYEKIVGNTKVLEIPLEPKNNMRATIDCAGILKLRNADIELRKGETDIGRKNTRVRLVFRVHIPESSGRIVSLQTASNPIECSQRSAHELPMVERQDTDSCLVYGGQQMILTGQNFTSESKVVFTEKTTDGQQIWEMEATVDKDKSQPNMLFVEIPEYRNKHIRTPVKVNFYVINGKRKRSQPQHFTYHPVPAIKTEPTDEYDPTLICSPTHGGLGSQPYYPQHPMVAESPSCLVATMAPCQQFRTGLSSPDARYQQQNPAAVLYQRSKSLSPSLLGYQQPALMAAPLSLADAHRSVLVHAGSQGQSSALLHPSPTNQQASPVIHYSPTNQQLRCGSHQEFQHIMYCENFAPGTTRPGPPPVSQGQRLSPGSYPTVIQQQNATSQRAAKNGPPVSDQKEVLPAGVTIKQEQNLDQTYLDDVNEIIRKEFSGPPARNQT
UniProt O75323: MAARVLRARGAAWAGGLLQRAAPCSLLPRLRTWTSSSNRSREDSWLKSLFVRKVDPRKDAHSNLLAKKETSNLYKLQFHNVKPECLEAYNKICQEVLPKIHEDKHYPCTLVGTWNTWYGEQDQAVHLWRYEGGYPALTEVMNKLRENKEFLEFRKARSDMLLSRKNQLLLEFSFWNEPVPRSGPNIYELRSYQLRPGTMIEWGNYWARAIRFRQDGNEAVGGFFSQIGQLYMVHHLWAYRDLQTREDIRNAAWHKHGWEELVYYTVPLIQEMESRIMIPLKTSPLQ
UniProt Q12986: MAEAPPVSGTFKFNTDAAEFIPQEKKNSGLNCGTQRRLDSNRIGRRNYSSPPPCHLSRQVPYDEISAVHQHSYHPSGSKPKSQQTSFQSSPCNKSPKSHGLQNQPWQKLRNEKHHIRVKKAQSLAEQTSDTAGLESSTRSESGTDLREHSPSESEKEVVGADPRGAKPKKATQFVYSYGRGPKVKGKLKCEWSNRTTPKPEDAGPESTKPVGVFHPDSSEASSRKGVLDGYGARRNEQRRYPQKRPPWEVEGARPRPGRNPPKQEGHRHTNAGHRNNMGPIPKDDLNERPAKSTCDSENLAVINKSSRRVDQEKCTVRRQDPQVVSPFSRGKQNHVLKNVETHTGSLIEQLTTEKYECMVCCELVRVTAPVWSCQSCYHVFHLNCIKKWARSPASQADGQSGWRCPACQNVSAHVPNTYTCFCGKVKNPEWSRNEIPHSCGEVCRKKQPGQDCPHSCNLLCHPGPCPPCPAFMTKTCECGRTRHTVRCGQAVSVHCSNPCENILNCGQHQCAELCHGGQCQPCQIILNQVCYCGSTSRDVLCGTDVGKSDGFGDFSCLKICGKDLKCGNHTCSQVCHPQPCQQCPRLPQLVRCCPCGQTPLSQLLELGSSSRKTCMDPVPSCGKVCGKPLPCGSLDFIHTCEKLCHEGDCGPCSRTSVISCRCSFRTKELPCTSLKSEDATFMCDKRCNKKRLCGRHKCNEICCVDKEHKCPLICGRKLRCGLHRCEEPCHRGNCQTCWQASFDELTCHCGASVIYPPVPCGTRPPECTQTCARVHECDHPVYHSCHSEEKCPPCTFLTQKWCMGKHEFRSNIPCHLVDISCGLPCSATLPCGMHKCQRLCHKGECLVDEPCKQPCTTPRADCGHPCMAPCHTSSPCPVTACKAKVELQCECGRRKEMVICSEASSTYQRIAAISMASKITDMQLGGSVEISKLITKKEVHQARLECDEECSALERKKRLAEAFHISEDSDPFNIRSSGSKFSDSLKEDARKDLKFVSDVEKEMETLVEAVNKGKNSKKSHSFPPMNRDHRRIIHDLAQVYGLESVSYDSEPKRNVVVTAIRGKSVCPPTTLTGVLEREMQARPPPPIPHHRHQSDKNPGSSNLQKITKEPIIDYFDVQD
UniProt Q8TAT5: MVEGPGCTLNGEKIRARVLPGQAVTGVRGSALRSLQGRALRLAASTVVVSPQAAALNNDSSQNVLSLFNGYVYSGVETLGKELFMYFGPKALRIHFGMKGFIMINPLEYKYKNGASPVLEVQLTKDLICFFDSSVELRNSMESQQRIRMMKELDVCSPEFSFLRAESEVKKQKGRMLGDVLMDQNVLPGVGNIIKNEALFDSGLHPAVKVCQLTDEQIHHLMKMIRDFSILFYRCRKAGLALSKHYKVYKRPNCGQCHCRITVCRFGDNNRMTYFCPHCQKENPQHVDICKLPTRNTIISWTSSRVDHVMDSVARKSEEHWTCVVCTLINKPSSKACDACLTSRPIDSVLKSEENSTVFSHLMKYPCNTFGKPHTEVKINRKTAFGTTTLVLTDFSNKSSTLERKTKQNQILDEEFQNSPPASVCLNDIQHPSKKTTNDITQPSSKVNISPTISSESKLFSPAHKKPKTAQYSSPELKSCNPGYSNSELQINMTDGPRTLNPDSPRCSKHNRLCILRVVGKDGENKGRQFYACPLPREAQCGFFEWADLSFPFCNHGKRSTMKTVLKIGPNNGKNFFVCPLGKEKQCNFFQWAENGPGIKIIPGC

Compound: Cc1cc(ccc1-c1ccccc1)C(=O)N1CCCN(CC1)C(=O)CCl [compound 10]
Experiment: probe-labelled cysteine peptide fold change vs DMSO (competition) (log2 fold change); higher = less target engagement (more negative = stronger competition)
Details: THP-1, incubation time: 4 h
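Also: competitive profiling in live THP-1 cells: cysteine peptides tagged with an iodoacetamide desthiobiotin (IA-DTB) probe, intensity after compound treatment relative to DMSO-treated cells.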

Row | Target | probe-labelled cysteine peptide fold change (10 µM) | probe-labelled cysteine peptide fold change (50 µM)
1 | NELFCD_Q8IXH7_461_YFQLQTDHTPVHLALLDEISTCHQLLHPQVLQLLVK (UniProt Q8IXH7) | 0.128 | 0.201
2 | NELFCD_Q8IXH7_397_AVETVHNLCCNENK (UniProt Q8IXH7) | 0.0405 | -0.133
3 | NECAP1_Q8NC96_12_ATELEYESVLCVKPDVSVYR (UniProt Q8NC96) | 0.0951 | 0.346
4 | NDUFAF7_Q7L592_275_DHVEVCPDAGVIIEELSQR (UniProt Q7L592) | 0.399 | 0.0232
5 | NDUFS1_P28331_554_VLFLLGADGGCITR (UniProt P28331) | 0.0579 | 0.123
6 | NECTIN2_Q92692_238_ADGVTVTCK (UniProt Q92692) | -0.148 | -0.394
7 | NEMF_O60524_201_RVLNPLLPYGPALIEHCLLENGFSGNVK (UniProt O60524) | 0.106 | 0.103
8 | NFATC2_Q13469_355_HIYPAVEFLGPCEQGER (UniProt Q13469) | -0.364 | -0.297
9 | NIPSNAP2_O75323_93_ICQEVLPK (UniProt O75323) | -0.223 | -0.156
10 | NCOA7_Q8NI08_487_GALDLETCEK (UniProt Q8NI08) | -0.28 | -0.107
11 | NDRG1_Q92597_49_GETITGLLQEFDVQEQDIETLHGSVHVTLCGTPK (UniProt Q92597) | 0.289 | 0.0766
12 | NFX1_Q12986_377_VTAPVWSCQSCYHVFHLNCIK (UniProt Q12986) | -0.0313 | 0.231
13 | NEIL3_Q8TAT5_259_RPNCGQCHCR (UniProt Q8TAT5) | 0.113 | -1.02
14 | NDUFB10_O96000_119_EGQNYQQNCIK (UniProt O96000) | -0.63 | 0.0913

A second format for part of the listing above:
Row	Target	probe-labelled cysteine peptide fold change (10 µM)	probe-labelled cysteine peptide fold change (50 µM)
7	NEMF_O60524_201_RVLNPLLPYGPALIEHCLLENGFSGNVK (UniProt O60524)	0.106	0.103
13	NEIL3_Q8TAT5_259_RPNCGQCHCR (UniProt Q8TAT5)	0.113	-1.02
